# Laboratory results taken from PubChem BioAssay AID1439 (NMMLSC, 2008).
# Protein sequences, listed by entry. Tags and fused reporters are not part of them.
# UniProt P09471, whole entry, looked up: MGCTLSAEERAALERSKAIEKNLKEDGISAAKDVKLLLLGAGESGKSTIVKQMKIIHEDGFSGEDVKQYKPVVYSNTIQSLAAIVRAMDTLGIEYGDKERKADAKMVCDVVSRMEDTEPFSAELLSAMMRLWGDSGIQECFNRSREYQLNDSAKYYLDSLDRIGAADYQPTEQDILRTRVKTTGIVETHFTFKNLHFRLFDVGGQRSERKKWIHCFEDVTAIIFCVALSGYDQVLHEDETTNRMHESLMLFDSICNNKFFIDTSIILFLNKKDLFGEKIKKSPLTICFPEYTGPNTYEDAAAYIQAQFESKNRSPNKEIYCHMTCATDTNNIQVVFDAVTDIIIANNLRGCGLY
# About 770 (0.35%) of roughly 220,000 compounds were called active. Inconclusive means that the source gave no clear call. Such entries were picked first, then a sample of the others. Rule as the data show it: active = binding response below about 49% or above about 150%; inconclusive = no clear call, values can overlap the other calls; inactive = in between.
# Biological target: Guanine nucleotide-binding protein G(o) subunit alpha (Homo sapiens) (UniProt P09471)
# Assay: RGS7-Galphao binding modulators, primary screen, biochemical, multiplexed bead flow cytometry (AID 1439);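 also: fluorescent Galphao held in activated GDP-AlF4 state binding bead-coupled RGS7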
# Conditions: at 10 µM, actives lie on both sides
row,SMILES,binding response (% of control)
1,CN1CCCN(C(=O)CNC(=O)Cc2ccccc2)CC1,inconclusive: 105%
2,CC(=O)Nc1ccc(CN2CCCC(CCC(=O)NCc3ccccc3F)C2)cc1 (centres undefined),inconclusive: 100%
3,CCc1ccc[n+](-c2[nH]c(=O)sc2/C=N/N=C(\[O-])CCn2c3ccccc3c3ccccc32)c1,inconclusive: 128%
4,CCSc1nc2sc3c(c2c2[n+]1CC(CBr)O2)CCCC3 (centres undefined),inconclusive: 85.7%
5,C=C(C)C(=O)Nc1cccc(C2=NOC3(C2)C[C@@H](C(N)=O)N(C(=O)c2cc([N+](=O)[O-])cc([N+](=O)[O-])c2)C3)c1 (some centres undefined),inconclusive: 98.3%
6,O=C(c1ccc(F)cc1)c1cnc(Nc2ccccc2)s1,inconclusive: 114%
7,CCOC(=O)C1CCN(c2ncnc3cc(OC)c(OC)cc23)CC1,inconclusive: 92.2%
8,O=c1c(Cc2ccccc2)c(O)ccn1Cc1ccc2c(c1)OCO2,inconclusive: 106%
9,CCn1c(-c2nn(-c3ccccc3)ccc2=O)n[nH]c1=S,inconclusive: 107%
10,COC(=O)c1c(C)[nH]c(C=O)c1-c1ccccc1,inconclusive: 119%
11,S=C(Nc1ccc2nc(-c3ccccn3)c(-c3ccccn3)nc2c1)N1CCCCC1,inactive: 98.8%
12,COC(=O)c1cc(Br)c(=O)n(-c2cccc(F)c2)c1,inactive: 105%
13,CCOc1ccc(NC(c2ccccn2)c2oc(CO)cc(=O)c2O)cc1 (centres undefined),inconclusive: 74.8%
14,Cc1c(C(=O)c2ccccc2)c2ccccn2c1CCc1ccccn1,inconclusive: 103%
15,COc1ccccc1-n1c(SCC(N)=O)nc2sc3c(c2c1=O)CCC3,inconclusive: 89%
16,Cc1[nH]c(=O)[nH]c(=O)c1/C=N/NC(=O)[C@@H](N)CC(C)C,inconclusive: 108%
17,O=C(NCCCN1CCOCC1)c1sc2cc([N+](=O)[O-])ccc2c1Cl,inconclusive: 65%
18,COc1cccc(NC(=O)c2ccccc2-c2ccccc2)c1,inconclusive: 107%
19,COC(=O)c1cc(NC(=O)c2cccc(C(F)(F)F)c2)c(=O)oc1C,inconclusive: 119%
20,NC(=O)CC(NC(=O)Cc1cccc2ccccc12)c1ccc(NCc2cc(F)ccc2F)c([N+](=O)[O-])c1 (centres undefined),inconclusive: 94.9%
21,Cc1ccc(N(Cc2cc3ccccc3[nH]c2=O)C(=O)c2cccs2)cc1C,inconclusive: 156%
22,O=C(O)[C@H]1Cc2ccccc2CN1S(=O)(=O)c1ccc(F)cc1,inconclusive: 98.3%
23,O=C(NNC(=O)c1c(F)cccc1F)c1ccccc1-n1cccc1,inconclusive: 109%

row,SMILES,binding response (% of control)
1,CC(=O)c1ccc(C(=O)Nc2nnc(-c3ccc(Cl)cc3)o2)cc1,inconclusive: 91.7%
2,CSc1nc(N)nc(N(C)C)n1,inconclusive: 83.5%
3,Nc1c2nc(-c3ccccc3Cl)[nH]c(=O)c2nc(=O)n1-c1ccccc1,inconclusive: 101%
4,N#C/C(=C\c1ccc(N2CCCCC2)o1)C(N)=O,inactive: 103%
5,CCCn1nc(C(=O)Oc2ccc3c(C)cc(=O)oc3c2)c2ccccc2c1=O,inactive: 106%
6,CC(=O)Nc1ccc(S(=O)(=O)NCC(=O)NC(C)c2ccc(S(N)(=O)=O)cc2)cc1 (centres undefined),inconclusive: 621%
7,Nc1[nH]nc2nc(N3CCCC3)nc(-c3ccccc3)c12,inactive: 96%
8,Cn1ncc(N=Cc2ccccc2[N+](=O)[O-])c1C(N)=O,inconclusive: 101%
9,CCn1nnc(NC(=O)COc2ccc([N+](=O)[O-])cc2)n1,inconclusive: 33.6%
10,CCOC(=O)Cc1cc(=O)n2[nH]c(C(C)(C)C)cc2n1,inconclusive: 198%
11,CC(C)c1cc(-c2cc(-c3ccccc3)on2)nc(NC2CCCC2)n1,inconclusive: 99.6%
12,O=C(Cn1cccc(C(F)(F)F)c1=O)c1ccc(Cl)cc1,inconclusive: 145%
13,CCOC(=O)/C(C#N)=C/Nc1ccsc1C(=O)OC,inconclusive: 117%
14,CCN(CC)C(=S)NC(=O)c1ccc(F)cc1,inconclusive: 73%
15,CC1(C)CC(NCCC(c2ccccc2)c2ccco2)CCO1 (centres undefined),inconclusive: 45.8%
16,C/C(=N/NC(=O)c1cc(-c2cccc([N+](=O)[O-])c2)n[nH]1)c1cccc(O)c1,inconclusive: 46.4%
17,O=S(=O)(c1cnc[nH]1)N1CCN(c2ccc(F)cc2)CC1,inconclusive: 67%
18,Cn1c(-c2ccc([N+](=O)[O-])cc2)nc2ccccc21,inconclusive: 76.4%
19,COc1ccc(C(=O)CSc2ncnc3nc[nH]c23)cc1,inconclusive: 272%
20,Cc1ccc(CN(Cc2cccnc2)C(=S)Nc2cc(Cl)ccc2C)cc1,inconclusive: 111%
21,Oc1c(Br)cc(/C=N/NC(=S)NCc2ccco2)cc1Br,inconclusive: 85.2%
22,COc1ccccc1C(=O)C1CCCN(C(=O)c2ccccn2)C1 (centres undefined),inactive: 106%
23,Brc1ccc(-c2nnc(Cc3ccccc3)o2)cc1,inconclusive: 166%

row,SMILES,binding response (% of control)
1,COc1ccc(-c2csc(NC(=S)NC(=O)c3cccs3)n2)cc1OC,inconclusive: 74.4%
2,Nc1ccnn1-c1ccccc1,inconclusive: 98.5%
3,COc1cccc2c1OCC(CN1CCN(CCC(C)C)C(CCO)C1)=C2 (centres undefined),inactive: 99.6%
4,CCOC(=O)c1sc2ncnc(N3CCN(C)CC3)c2c1C,inconclusive: 127%
5,COCc1ccc(C(=O)Nc2ccc(C(=O)O)cc2)o1,inconclusive: 65.7%
6,CCOc1ccc(NC(=O)c2ccc(CC)s2)c([N+](=O)[O-])c1,inconclusive: 114%
7,CCN(Cc1ccccc1)C(=O)COC(=O)c1cc(S(=O)(=O)Nc2c(C)n(C)n(-c3ccccc3)c2=O)ccc1C,inconclusive: 109%
8,C=CCn1c(COc2ccccc2)nnc1SCC(=O)Nc1ccc(S(N)(=O)=O)cc1,inactive: 100%
9,CCOc1ccc(C(=O)Nc2ccc(N3CCN(C(C)=O)CC3)cc2)cc1[N+](=O)[O-],inconclusive: 83.1%
10,O=C(O)CCCN1C(=O)/C(=C/C=C/c2ccco2)SC1=S,inconclusive: 122%
11,c1ccc2sc(NCC3CCCO3)nc2c1 (centres undefined),inconclusive: 114%
12,O=[N+]([O-])c1ccc(C[n+]2cccc3ccccc32)cc1,inconclusive: 104%
13,CC12CCC(C(=O)N(NC(=O)c3cc(Cl)ccc3O)C1=O)C2(C)C (centres undefined),inactive: 101%
14,CC1=C(C)CC(C(=O)Nc2ccc3c(c2)OCO3)C(C(=O)O)C1 (centres undefined),inactive: 95.3%
15,COC(=O)c1sccc1NC(=O)CC1C(=O)NCCN1C(=O)c1ccc(C)c(C)c1 (centres undefined),inconclusive: 96.8%
16,Cc1ccc(S(=O)(=O)N2CCN(CC(=O)NC(=O)NCc3ccco3)CC2)cc1C,inconclusive: 65.8%
17,COc1cc(/C=C2/SC(=S)N(CC(=O)O)C2=O)ccc1OC(=O)c1cccs1,inconclusive: 96.2%
18,CC(C)(C)C1CCC(=NNC(=S)NCc2ccccc2)CC1 (centres undefined),inconclusive: 96.7%
19,COc1cc(C(F)(F)F)c(C(=O)N(C)Cc2cc(Cl)cc(Cl)c2)cn1,inconclusive: 71.6%
20,COc1ccccc1Nc1nc(N)nc(CN2CCN(Cc3ccc4c(c3)OCO4)CC2)n1,inconclusive: 75.6%
21,CCN1CCN(Cc2c(O)ccc3c2O/C(=C\C=C\c2ccccc2)C3=O)CC1,inactive: 103%
22,COC(=O)c1ccc(OCC(O)CN(CC(C)C)CC(C)C)cc1 (centres undefined),inactive: 110%
23,Cc1cccc(C)c1NC(=O)Cn1nnc(-c2ccc(CN3CCC(C)CC3)cc2)n1,inconclusive: 100%

# No new results follow: 2 of the compounds above.
row,SMILES,binding response (% of control)
15,COC(=O)c1sccc1NC(=O)CC1C(=O)NCCN1C(=O)c1ccc(C)c(C)c1 (centres undefined),inconclusive: 96.8%
16,Cc1ccc(S(=O)(=O)N2CCN(CC(=O)NC(=O)NCc3ccco3)CC2)cc1C,inconclusive: 65.8%

# Later entries.

row,SMILES,binding response (% of control)
1,O=C(O)c1ccc(S(=O)(=O)c2ccc3c(c2)C(=O)N(NC(=O)c2ccncc2)C3=O)cc1,inconclusive: 82.1%
2,O=C(c1ccc(N2CCOCC2)cc1[N+](=O)[O-])N1CCOCC1,inactive: 102%
3,CCN1CCN(c2cc(C)c3cc(NC(=S)NCc4cccs4)ccc3n2)CC1,inconclusive: 103%
4,COc1cc(C(C(=O)Nc2c(C)cccc2C)N(C)C(=O)c2ccc(-n3cnnn3)cc2)ccc1O (centres undefined),inconclusive: 82.5%
5,Cc1cc(C(=O)COC(=O)c2cccn2C)c(C)n1Cc1ccco1,inconclusive: 70.2%
6,CCC1CCCCN1Cc1nc(Cc2ccccc2Cl)no1 (centres undefined),inconclusive: -534%
7,Cc1ccc(Cn2ccnc2C(=O)Nc2ccccc2)cc1,inconclusive: 82.4%
8,COC(=O)c1ccc(S(=O)(=O)N2CCCN(Cc3cccc(Br)c3F)CC2)n1C,inconclusive: 95.3%
9,COC(=S)Nc1cccc(C(F)(F)F)c1,inconclusive: 106%
10,CCCN1C(=O)C2(SC(NC(C)=O)=NN2C(C)=O)c2cc(C)cc(C)c21 (centres undefined),inconclusive: 89.3%
11,CC1=C(C#N)C(=O)N(C2CCS(=O)(=O)C2)C(=O)/C1=C\c1ccc(C)o1 (centres undefined),inconclusive: 85.3%
12,C/C(=N/NC(=O)C(C)n1nc(C)c([N+](=O)[O-])c1C)c1ccc(OCC(N)=O)cc1 (centres undefined),inconclusive: 81.1%
13,COC(=O)c1ccc(Cn2cc(Cl)cn2)cc1,inactive: 94.2%
14,O=C1CC(C(=O)NCCc2ccccc2)SC(=Nc2ccccc2)N1 (centres undefined),inconclusive: 111%
15,O=C(CSc1nnc(CNC(=O)C23CC4CC(CC(C4)C2)C3)n1-c1ccc(F)cc1)Nc1ccccc1,inactive: 98.6%
16,COc1ccc(OC)c(NC(=O)COC(=O)c2ccc(S(=O)(=O)N3CCOCC3)cc2)c1,inactive: 98.7%
17,N#CC1CC(c2ccccc2)=NN1c1ccccc1[N+](=O)[O-] (centres undefined),inconclusive: 90.1%
18,COc1ccc(NC(=O)c2ccc(S(=O)(=O)N3CCCCCC3)cc2)c(OC)c1,inconclusive: 53.3%
19,CCCN(CCC)CC(=O)N1CC(=O)Nc2ccccc21,inconclusive: 466%
20,O=S(=O)(/N=C(/Nc1ccc(Cl)c(S(=O)(=O)Nc2ccccc2Cl)c1)c1ccc(F)cc1)c1ccccc1,inactive: 109%

# Of the compounds above, these have a tert-butyl group:
row,SMILES,binding response (% of control)
10,CCOC(=O)Cc1cc(=O)n2[nH]c(C(C)(C)C)cc2n1,inconclusive: 198%
18,CC(C)(C)C1CCC(=NNC(=S)NCc2ccccc2)CC1 (centres undefined),inconclusive: 96.7%
